Screening data, single-dose tests

Sequences of proteins named here, by UniProt entry; tags and fusion partners are left off. Residues count along the entry.
UniProt Q4DA54, 1-478: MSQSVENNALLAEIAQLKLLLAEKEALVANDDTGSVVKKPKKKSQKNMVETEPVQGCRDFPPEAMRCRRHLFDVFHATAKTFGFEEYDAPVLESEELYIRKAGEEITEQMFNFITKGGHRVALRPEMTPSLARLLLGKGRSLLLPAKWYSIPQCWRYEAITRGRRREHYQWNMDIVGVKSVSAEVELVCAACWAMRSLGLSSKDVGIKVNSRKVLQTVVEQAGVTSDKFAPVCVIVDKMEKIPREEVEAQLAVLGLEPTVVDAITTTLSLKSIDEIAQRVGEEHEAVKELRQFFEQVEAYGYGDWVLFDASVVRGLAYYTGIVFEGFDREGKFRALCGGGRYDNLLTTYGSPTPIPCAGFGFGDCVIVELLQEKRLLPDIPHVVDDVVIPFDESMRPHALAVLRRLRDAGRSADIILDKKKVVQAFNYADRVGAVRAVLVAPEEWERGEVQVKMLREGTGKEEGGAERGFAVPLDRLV
UniProt P9WNZ1, whole entry: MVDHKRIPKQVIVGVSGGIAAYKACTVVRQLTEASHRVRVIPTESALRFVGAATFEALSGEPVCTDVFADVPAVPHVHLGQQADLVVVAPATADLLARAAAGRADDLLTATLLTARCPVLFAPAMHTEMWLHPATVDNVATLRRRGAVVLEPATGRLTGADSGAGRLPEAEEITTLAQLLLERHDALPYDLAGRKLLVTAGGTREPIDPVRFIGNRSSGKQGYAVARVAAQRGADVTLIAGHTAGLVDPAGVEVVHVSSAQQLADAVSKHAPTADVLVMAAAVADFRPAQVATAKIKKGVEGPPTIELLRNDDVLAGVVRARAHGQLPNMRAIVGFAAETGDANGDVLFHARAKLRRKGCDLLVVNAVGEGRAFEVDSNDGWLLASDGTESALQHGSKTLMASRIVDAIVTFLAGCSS

A: 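Histidine-tRNA ligase, Trypanosoma cruzi CL Brener (UniProt Q4DA54). Enzyme assay of histidyl-tRNA synthetase; the read-out is not stated. Compounds at 30 µM. The record gives no direction; compounds that gave an IC50 in retests scored well above the rest, so higher reads as stronger inhibition. About 69,000 compounds were tested under these conditions; 0.045% (about 31) showed 50% or more at least once.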
B: 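Enzyme assay of CoaBC with a phosphate dye (Biomol Green) read at 650 nm. Target: Coenzyme A biosynthesis protein CoaBC, Mycobacterium tuberculosis (UniProt P9WNZ1). Compounds at 30 µM. Higher reads as stronger inhibition, judged from the few compounds that gave an IC50. Most strong results did not repeat in a second test. About 67,000 compounds were tested under these conditions; 0.06% (about 40) showed 50% or more at least once.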

The filed quantity is “Percent Effect” (%).
How 0% and 100% were set is not recorded. Most values in the screen are low, and negative values occur.
This is an unselected part of the compounds tested.
A dash means the value is not listed here; it may have been measured.

| SMILES | A | B |
|---|---|---|
| `Cc1nc(C)n(CC2CCCN(Cc3nc(C)c(C)o3)C2)n1` (centres unmarked) | -0.7519 | 1.068 |
| `CCC(=O)N1CCCN(Cn2nc(C)c(Br)c2C)CC1` | 8 | -0.8264 |
| `OC[C@H]1CN(Cc2c(Cl)cncc2Cl)C[C@H]1CN1CCCCCC1` | 3.261 | -46.73 |
| `Cc1nc(N2CCOCC2)nc2c1CCN(C(=O)C1(C#N)CC1)CC2` | 4.124 | 0.2463 |
| `COc1cccc(S(=O)(=O)N2C[C@@H](N(C)C)[C@H](C(C)C)C2)c1` | 6.627 | -5.732 |
| `CC(C)CCn1nc2ccc(S(=O)(=O)N3CCOCC3)cn2c1=O` | 2 | 1.937 |
| `CC(C)(C)C(=O)NCCC(=O)NC(C)(C)c1ccc2c(c1)OCO2` | 2.242 | 6.345 |
| `COc1ccc2c(c1)C(=O)NC1(CC2)CCN(Cc2ccc(F)cc2)C1` (centres unmarked) | 6.061 | 0.5256 |
| `CCc1ncc2c(n1)CN(CC(=O)Nc1nncs1)CC2` | 8.475 | 2.089 |
| `COc1ccc(C(N)=O)cc1NCc1noc(-c2ccsc2)n1` | -1.031 | 1.956 |
| `Cc1ccc(N2N=C(C(=O)O)S(=O)(=O)c3cccnc32)cc1` | 9.901 | -1.094 |
| `Cc1nc(N(C)CCCc2nccn2C)c2nc(C)oc2n1` | 1.681 | 7.991 |
| `OCC1CCCN1c1cc(NCc2cc3ccccc3o2)ncn1` (centres unmarked) | 13.41 | 4.937 |
| `Cc1nn(C)c(C)c1C1CCCN1Cc1ccc(C(N)=O)cc1` (centres unmarked) | 2.857 | 0.7874 |
| `c1ccc(-c2nc(CN3CCc4c(ncn4C4CC4)C3)cs2)cc1` | 19.39 | 6.324 |
| `COc1cc(C(=O)NCCc2cccc(C)c2)on1` | 12.7 | -0.6198 |
| `Cc1noc(C)c1CN(C)Cn1nccc1-c1cccnc1` | 2.521 | -2.823 |
| `CC(C)NC(=O)CC(C)NC(=O)N(C)Cc1cc(Cl)cn1C` (centres unmarked) | 0 | - |
| `COCc1noc(-c2ccc(N3CCCCC3CO)nc2)n1` (centres unmarked) | 4.959 | -13.16 |
| `CN(C(=O)c1ccccc1Cl)C1CCN(c2ccccn2)CC1` | 1.887 | 7.949 |
| `CC(C)CCOc1ccc(C(C)NC(=O)Cn2cccnc2=O)cc1` (centres unmarked) | 1.734 | -16.53 |
| `Cn1nnc2c1CCN(Cc1ccncc1)C2COCC1CC1` (centres unmarked) | 12.4 | 0.8403 |
| `CSCC[C@@H](CO)NC(=O)c1ccc2nc(NS(C)(=O)=O)sc2c1` | 5.941 | 0.8505 |
| `CN1CCC(C(=O)N2CCC(c3ccc4c(N)n[nH]c4n3)CC2)CC1` | 3.788 | 5.919 |
| `CN1[C@H](Cn2cncn2)C[C@@H]2CN(Cc3cccc(C#N)c3)CC[C@@H]21` | 5.882 | 1.035 |
| `COCc1nc(CNC2CSCCSC2)no1` | -2.041 | 3.968 |
| `O=S(=O)(NCc1ccc(S(=O)(=O)N2CCCC2)s1)c1ccc(Cl)c(Cl)c1` | -1.754 | -4.798 |
| `C[C@H]1CN(C(=O)N(C)C)C[C@@]12CCN(c1ccsc1)C2=O` | 4.902 | -0.25 |
| `CC(C)Cc1cc(C(=O)NCC(O)CN2CCCCCC2)on1` (centres unmarked) | 1.117 | -3.599 |
| `CC(C)N(C)CCNC(=O)NCc1ccccc1-n1cccn1` | 12.07 | 4.126 |
| `CS(=O)(=O)N1CCOCC2(CN(Cc3ccc(F)cc3)CCO2)C1` (centres unmarked) | -10.45 | 4.126 |
| `Cc1ccnc(CC(C)N(C)c2cc(C3CCNCC3)nc(C)n2)c1` (centres unmarked) | 3.911 | -3.226 |
| `Cn1cc(CN2CCOC(c3cccc(-c4cccc(F)c4)n3)C2)cn1` (centres unmarked) | 4.135 | 3.73 |
| `CCCc1nc(C)cc(NC(C)Cc2cnccn2)n1` (centres unmarked) | 1.932 | 1.615 |
| `O=C(c1ccccc1F)N1CC(c2nc(C3CC3)no2)C1` | 4.124 | -1.057 |
| `CN(C)C(=O)c1cc2ncc(C(=O)NC3CC3)cc2n1C` | 10.23 | 0.9709 |
| `Cc1nonc1CC(=O)N1C[C@@H]2CC[C@H](C1)N(Cc1ccccc1)C2=O` | 5 | -10.45 |
| `O=C(c1ccnnc1)N1CC[C@]2(C[C@H](Oc3ncccc3F)CO2)C1` | 1.754 | 1.11 |
| `Cc1ccccc1OCCCNC(=O)C1(C)CC(=O)N2C=CC=CC2=N1` (centres unmarked) | 0.2857 | -5.479 |
| `CCCNC(=O)CCNC(=O)N1CCc2c(F)ccc(F)c2C1` | 3.279 | 1.222 |
| `NC(=O)NCC1CCCCN1C(=O)c1ccc(Cl)s1` (centres unmarked) | 6.878 | -11 |
| `COCc1ccccc1NC(=O)NC(C)c1ccc(C)o1` (centres unmarked) | -2.326 | 0 |
| `CN(C)C(=O)CC1CCOc2ccccc21` (centres unmarked) | 1.053 | -0.3984 |
| `COc1cccc(N2CCN(Cc3ncc[nH]3)CC2=O)c1` | 7.317 | 3.797 |
| `Cc1cnn(C2CN(CC(=O)NCCCc3ccccc3)C2)c1` | 8.671 | 1.173 |
| `COc1ccc(-c2cc(N)on2)cc1OC` | 2.312 | -0.3681 |
| `CNC(=O)C1CC(=O)N(c2cccc(F)c2)C1` (centres unmarked) | 4.712 | -3.909 |
| `Cn1ncc(Cl)c1C(=O)N1CCC(c2nnsc2S(C)(=O)=O)CC1` | 6.818 | -12.88 |
| `COc1ccc(C(C)NC(=O)C2CCN(S(C)(=O)=O)CC2)cc1C` (centres unmarked) | -0.4484 | 1.269 |
| `CCN1CCC2(CC1)CC(Nc1ncccn1)CO2` (centres unmarked) | -0.5348 | 5.59 |
| `COCC1CC2(CCN(Cc3cnn(C)c3)CC2)CN1C(C)C` (centres unmarked) | 8.197 | -0.3861 |
| `O=C1CCCN1CCc1nc(-c2ccsc2)no1` | -2.041 | 1.373 |
| `CCOCC1CCN(C(=O)c2sc(C)cc2OC(F)F)CC1` | 8.247 | 6.84 |
| `C[C@@H]1CN(CC(=O)NCc2ccccn2)C[C@]1(C)O` | 0 | 0.6289 |
| `CN(C)c1nc(CNC(=O)NC2COc3ccccc32)cs1` (centres unmarked) | 5.319 | 2.811 |
| `CC(C)Cc1ccc(S(=O)(=O)NCCCN2CCNC(=O)C2)cc1` | 13.1 | 2.206 |
| `CN(C)CC1CN(Cc2ccsc2)Cc2nccn2C1` (centres unmarked) | 7.104 | 1.931 |
| `CCn1nc2c(cc1=O)CN(CCOc1ccc(C#N)cc1)CC2` | 12.12 | -1.945 |
| `CC(=O)N[C@@H]1CN(C2CCN(c3ccccc3F)CC2)C[C@H]1C(C)C` | 19.55 | 1.613 |
| `COCCNC(=O)NC(c1ccccc1)c1ccccc1OC` (centres unmarked) | 9.639 | 0.2475 |
| `O=C(NCc1nnc2n1CCC2)N1CCC2(CCCCC2)CC1` | 2.809 | -1.408 |
| `CC(C)(C)C(=O)c1ccsc1NC(=O)CCNC(=O)c1ccco1` | 6.18 | -9.457 |
| `O=C(C1CC(=O)N(C2CC2)C1)N1CCC(Oc2ccccc2Cl)CC1` (centres unmarked) | 2.041 | 2.303 |
| `CN(CCn1ccc2ccccc21)C(=O)Cc1nnn[nH]1` | -1.093 | 5.623 |
| `CO[C@@H]1CCC[C@@H](NC(=O)c2cccc(F)c2)[C@H]1O` | 2.26 | -10.65 |

Repeated from the top, 5 entries:

* Cc1nc(C)n(CC2CCCN(Cc3nc(C)c(C)o3)C2)n1 (centres unmarked) | A: -0.7519%; B: 1.068%
* CCC(=O)N1CCCN(Cn2nc(C)c(Br)c2C)CC1 | A: 8%; B: -0.8264%
* OC[C@H]1CN(Cc2c(Cl)cncc2Cl)C[C@H]1CN1CCCCCC1 | A: 3.261%; B: -46.73%
* Cc1nc(N2CCOCC2)nc2c1CCN(C(=O)C1(C#N)CC1)CC2 | A: 4.124%; B: 0.2463%
* COc1cccc(S(=O)(=O)N2C[C@@H](N(C)C)[C@H](C(C)C)C2)c1 | A: 6.627%; B: -5.732%

Measurements from “University of Dundee, Small-Polar-MMV Screening Library” (2021), ChEMBL document CHEMBL3988442.